Assay results as given in publication PMC5861098.
Results are given in words; binding and its absence hold for the method and conditions named. Binding seen in cells or lysates may run through a third protein. A result given as binding can be weak or reduced; the word gives no strength.

Tests used:
Test in all cases: crystal structure; co-crystallization of 4 mg/mL purified Kl Dcp1–Dcp2(E152Q)–Edc3 (co-expressed, co-purified) with 1 mM Kl Edc1 peptide, 6 mM two-headed cap analog and 10 mM MgCl2; hanging drop, 4 °C; 2.84 Å, space group C2, two copies of the complex in the asymmetric unit; both purified
[1] = target: K. lactis Dcp1(1–188) (K. lactis)
[2] = target: K. lactis Dcp1(1–188)–Dcp2(1–275, E152Q)–Edc3(1–66) complex (K. lactis)
[3] = target: K. lactis Dcp2(1–275, E152Q) (K. lactis)

Measured: binding

HSKCYAGATFATEAPQVTTLPKPSFV (peptide, UniProt Q6CYC5 355-380) [Kl Edc1(355-380) peptide]
binds: all assays above
